Measured values published in the supplement of paper PMC4604168 (melanoma cell lines).
The list shows a part of the results. Repeats are few or missing, and single values can be far off.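 Cells were imaged in 1,536-well plates, and nuclei stained with an antibody against cleaved PARP were counted against all DNA-stained nuclei to give the apoptosis fraction. Screening doses were chosen to leave most cells alive, and resting and induced cleaved-PARP levels differ strongly between cell lines.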

Assays:
Assay in all cases: cleaved PARP positive nuclei fraction relative to DMSO control; melanoma cells; higher = more apoptosis
Details in all cases: library dose: low library concentration; 72 h
501Mel = test system: 501Mel
A101D = test system: A101D
A2058 = test system: A2058
A375 = test system: A375
C32 = test system: C32
CBRC008 = test system: CBRC008 (line from a melanoma biopsy)
CBRC014 = test system: CBRC014 (line from a melanoma biopsy)
CBRC016 = test system: CBRC016 (line from a melanoma biopsy)
CBRC017 = test system: CBRC017 (line from a melanoma biopsy)
CBRC034 = test system: CBRC034 (line from a melanoma biopsy)
COLO792 = test system: COLO792
COLO800 = test system: COLO800
COLO829 = test system: COLO829
G361 = test system: G361
IPC-298 = test system: IPC-298
IST-MEL1 = test system: IST-MEL1
LB2518-MEL = test system: LB2518-MEL
LOXIMVI = test system: LOXIMVI
MEL-HO = test system: MEL-HO

| Structure (SMILES) | cleaved PARP positive nuclei fraction (501Mel) [%] | cleaved PARP positive nuclei fraction (A101D) [%] | cleaved PARP positive nuclei fraction (A2058) [%] | cleaved PARP positive nuclei fraction (A375) [%] | cleaved PARP positive nuclei fraction (C32) [%] | cleaved PARP positive nuclei fraction (CBRC008) [%] | cleaved PARP positive nuclei fraction (CBRC014) [%] | cleaved PARP positive nuclei fraction (CBRC016) [%] | cleaved PARP positive nuclei fraction (CBRC017) [%] | cleaved PARP positive nuclei fraction (CBRC034) [%] | cleaved PARP positive nuclei fraction (COLO792) [%] | cleaved PARP positive nuclei fraction (COLO800) [%] | cleaved PARP positive nuclei fraction (COLO829) [%] | cleaved PARP positive nuclei fraction (G361) [%] | cleaved PARP positive nuclei fraction (IPC-298) [%] | cleaved PARP positive nuclei fraction (IST-MEL1) [%] | cleaved PARP positive nuclei fraction (LB2518-MEL) [%] | cleaved PARP positive nuclei fraction (LOXIMVI) [%] | cleaved PARP positive nuclei fraction (MEL-HO) [%] |
| --- | --- | --- | --- | --- | --- | --- | --- | --- | --- | --- | --- | --- | --- | --- | --- | --- | --- | --- | --- |
| O=C(O)c1ccc2c(c1)nc(Nc1cccc(Cl)c1)c1ccncc12 + C=C(c1ccc(C(=O)O)cc1)c1cc2c(cc1C)C(C)(C)CCC2(C)C [Bexarotene] (first compound 0.4 µM, partner dose 2 µM) | 52.8 | 54.9 | 243 | 57.8 | 80.3 | 29.4 | 199 | 233 | 179 | 185 | 163 | 104 | 108 | 155 | 89 | 130 | 66.3 | 109 | 297 |
| Nc1ccn([C@@H]2O[C@H](CO)[C@@H](O)C2(F)F)c(=O)n1 [gemcitabine] + CCCS(=O)(=O)Nc1ccc(F)c(C(=O)c2c[nH]c3ncc(Cl)cc23)c1F [PLX4720] (first compound 0.0004 µM, partner dose 0.08 µM) | 42.8 | 251 | 191 | 198 | 253 | 61 | 157 | 163 | 104 | 97.5 | 58.3 | 76.3 | 56.2 | 61.9 | 107 | 123 | 109 | 109 | 227 |
| O=C(O)c1ccc2c(c1)nc(Nc1cccc(Cl)c1)c1ccncc12 + OCc1c[nH]c2ccccc12 [Indole-3-carbinol] (first compound 0.4 µM, partner dose 0.8 µM) | 103 | 36.1 | 220 | 197 | 167 | 56.5 | 111 | 184 | 182 | 62.1 | 96.7 | 69.9 | 81.4 | 93.4 | 122 | 51.2 | 56.1 | 69.8 | 106 |
| Cn1c(=O)n(-c2ccc(C(C)(C)C#N)cc2)c2c3cc(-c4cnc5ccccc5c4)ccc3ncc21 + C#Cc1cccc(Nc2ncnc3cc(OCCOC)c(OCCOC)cc23)c1 [erlotinib] (first compound 0.004 µM, partner dose 0.8 µM) | 102 | 185 | 107 | 170 | 72.6 | 121 | 81.2 | 145 | 120 | 80 | 172 | 43.8 | 113 | 135 | 97.3 | 64.3 | 227 | 195 | 96.4 |
| Nc1nc(F)nc2c1ncn2[C@@H]1O[C@H](CO)[C@@H](O)[C@@H]1O [fludarabine] + Nc1ncn([C@H]2C[C@H](O)[C@@H](CO)O2)c(=O)n1 [decitabine] (first compound 0.2 µM, partner dose 0.1 µM) | 12600 | 101 | 69.4 | 3490 | 74.4 | 154 | 112 | 343 | 103 | 177 | 115 | 41.6 | 92.9 | 75 | 129 | 83.4 | 107 | 51.1 | 73.7 |
| CS(=O)(=O)CCNCc1ccc(-c2ccc3ncnc(Nc4ccc(OCc5cccc(F)c5)c(Cl)c4)c3c2)o1 [lapatinib] + COc1ccc(Cl)c(Nc2nc3ccccc3nc2NS(=O)(=O)c2cccc(NC(=O)C(C)(C)N)c2)c1 [XL147] (first compound 0.8 µM, partner dose 0.8 µM) | 156 | 104 | 90.6 | 143 | 74.2 | 83 | 118 | 106 | 119 | 292 | 65.7 | 68.6 | 132 | 61 | 29.9 | 131 | 55.2 | 93.6 | 38 |
| Nc1ncn([C@H]2C[C@H](O)[C@@H](CO)O2)c(=O)n1 [decitabine] + Nc1cccc2c1CN(C1CCC(=O)NC1=O)C2=O [lenalidomide] (first compound 0.1 µM, partner dose 1 µM) | 172 | 102 | 142 | 203 | 143 | 117 | 93.1 | 57.8 | 114 | 96.4 | 118 | 53.4 | 75.4 | 69.2 | 79.4 | 96 | 244 | 108 | 99.2 |
| Cc1cc(Nc2cc(N3CCN(C)CC3)nc(/C=C/c3ccccc3)n2)n[nH]1 + CS(=O)(=O)CCNCc1ccc(-c2ccc3ncnc(Nc4ccc(OCc5cccc(F)c5)c(Cl)c4)c3c2)o1 [lapatinib] (first compound 0.04 µM, partner dose 0.8 µM) | 158 | 287 | 51.6 | 96.5 | 71.8 | 74.1 | 100 | 65.5 | 194 | 64.6 | 65.6 | 165 | 122 | 78.6 | 178 | 84.9 | 84.1 | 105 | 138 |
| CO[C@H]1C[C@@H]2CC[C@@H](C)[C@@](O)(O2)C(=O)C(=O)N2CCCC[C@H]2C(=O)O[C@H]([C@H](C)C[C@@H]2CC[C@@H](OCCO)[C@H](OC)C2)CC(=O)[C@H](C)/C=C(\C)[C@@H](O)[C@@H](OC)C(=O)[C@H](C)C[C@H](C)/C=C/C=C/C=C/1C [everolimus] + CCCS(=O)(=O)Nc1ccc(F)c(C(=O)c2c[nH]c3ncc(Cl)cc23)c1F [PLX4720] (first compound 0.02 µM, partner dose 0.08 µM) | 667 | 118 | 151 | 614 | 89.4 | 245 | 135 | 225 | 126 | 52.9 | 184 | 134 | 142 | 205 | 174 | 323 | 263 | 148 | 40.2 |
| C[C@@H](Oc1cc(-c2cnn(C3CCNCC3)c2)cnc1N)c1c(Cl)ccc(F)c1Cl [Crizotinib] + C#Cc1cccc(Nc2ncnc3cc(OCCOC)c(OCCOC)cc23)c1 [erlotinib] (first compound 0.2 µM, partner dose 0.8 µM) | 62.7 | 582 | 193 | 109 | 77.2 | 109 | 91.8 | 68.6 | 229 | 72.4 | 124 | 42.8 | 114 | 152 | 31.1 | 116 | 253 | 100 | 76.3 |
| Nc1ccn([C@@H]2O[C@H](CO)[C@@H](O)C2(F)F)c(=O)n1 [gemcitabine] + Cc1nc(Nc2ncc(C(=O)Nc3c(C)cccc3Cl)s2)cc(N2CCN(CCO)CC2)n1 [dasatanib] (first compound 0.0004 µM, partner dose 0.004 µM) | 117 | 137 | 117 | 168 | 89.4 | 164 | 123 | 105 | 129 | 165 | 82.8 | 103 | 148 | 152 | 32.2 | 114 | 61.9 | 132 | 64.5 |
| CN1CCN(c2ccc3nc(-c4c(N)c5c(F)cccc5[nH]c4=O)[nH]c3c2)CC1 [Dovitinib] + Cc1nc(Nc2ncc(C(=O)Nc3c(C)cccc3Cl)s2)cc(N2CCN(CCO)CC2)n1 [dasatanib] (first compound 0.1 µM, partner dose 0.004 µM) | 211 | 110 | 188 | 139 | 82.6 | 90.4 | 108 | 26.8 | 86.8 | 97.4 | 73.7 | 154 | 149 | 84.3 | 87.2 | 207 | 139 | 237 | 125 |
| CNC(=O)c1cc(Oc2ccc(NC(=O)Nc3ccc(Cl)c(C(F)(F)F)c3)cc2)ccn1 [sorafenib] + CS(=O)(=O)CCNCc1ccc(-c2ccc3ncnc(Nc4ccc(OCc5cccc(F)c5)c(Cl)c4)c3c2)o1 [lapatinib] (first compound 0.4 µM, partner dose 0.8 µM) | 101 | 80.7 | 139 | 247 | 73.5 | 167 | 122 | 70 | 136 | 37.6 | 82.9 | 164 | 63.4 | 113 | 94.1 | 85.7 | 110 | 77.8 | 116 |
| O=C(O)c1ccc2c(c1)nc(Nc1cccc(Cl)c1)c1ccncc12 + CC(=O)c1c(C)c2cnc(Nc3ccc(N4CCNCC4)cn3)nc2n(C2CCCC2)c1=O [palbociclib] (first compound 0.4 µM, partner dose 0.04 µM) | 221 | 112 | 101 | 217 | 99.5 | 177 | 211 | 213 | 193 | 210 | 81.4 | 27.3 | 54.8 | 123 | 108 | 127 | 92.2 | 126 | 86.1 |
| O=C(O)c1ccc2c(c1)nc(Nc1cccc(Cl)c1)c1ccncc12 + COCC[n+]1c2c(n(Cc3cnccn3)c1C)C(=O)c1ccccc1C2=O [YM155] (first compound 0.4 µM, partner dose 0.0004 µM) | 218 | 97.5 | 40.1 | 71.1 | 83.7 | 325 | 130 | 161 | 208 | 66.2 | 147 | 64.5 | 168 | 196 | 43.4 | 136 | 103 | 142 | 141 |
| Nc1ncn([C@H]2C[C@H](O)[C@@H](CO)O2)c(=O)n1 [decitabine] + Cn1nnc2c(C(N)=O)ncn2c1=O [temozolomide] (first compound 0.1 µM, partner dose 2 µM) | 73.2 | 100 | 238 | 48.1 | 57.9 | 248 | 124 | 232 | 100 | 45 | 106 | 108 | 217 | 135 | 249 | 37.4 | 239 | 133 | 158 |
| O=C(O)[C@@H]1[O][Sb](=[O])([O][Sb]2(=[O])[O][C@H]([C@H](O)CO)[C@H](O)[C@H](C(=O)O)[O]2)[O][C@H]([C@H](O)CO)[C@@H]1O (stereo partly drawn) [stibogluconate] + Cn1nnc2c(C(N)=O)ncn2c1=O [temozolomide] (first compound 2 µM, partner dose 2 µM) | 54.6 | 49.7 | 95.6 | 99.8 | 72.4 | 92.6 | 111 | 135 | 73.8 | 73.9 | 79.5 | 195 | 60.3 | 74.5 | 90.1 | 66.7 | 223 | 39 | 135 |

Whole records from above. Values in the order: cleaved PARP positive nuclei fraction (501Mel) [%]	cleaved PARP positive nuclei fraction (A101D) [%]	cleaved PARP positive nuclei fraction (A2058) [%]	cleaved PARP positive nuclei fraction (A375) [%]	cleaved PARP positive nuclei fraction (C32) [%]	cleaved PARP positive nuclei fraction (CBRC008) [%]	cleaved PARP positive nuclei fraction (CBRC014) [%]	cleaved PARP positive nuclei fraction (CBRC016) [%]	cleaved PARP positive nuclei fraction (CBRC017) [%]	cleaved PARP positive nuclei fraction (CBRC034) [%]	cleaved PARP positive nuclei fraction (COLO792) [%]	cleaved PARP positive nuclei fraction (COLO800) [%]	cleaved PARP positive nuclei fraction (COLO829) [%]	cleaved PARP positive nuclei fraction (G361) [%]	cleaved PARP positive nuclei fraction (IPC-298) [%]	cleaved PARP positive nuclei fraction (IST-MEL1) [%]	cleaved PARP positive nuclei fraction (LB2518-MEL) [%]	cleaved PARP positive nuclei fraction (LOXIMVI) [%]	cleaved PARP positive nuclei fraction (MEL-HO) [%]
Cn1c(=O)n(-c2ccc(C(C)(C)C#N)cc2)c2c3cc(-c4cnc5ccccc5c4)ccc3ncc21 + C#Cc1cccc(Nc2ncnc3cc(OCCOC)c(OCCOC)cc23)c1 [erlotinib] (first compound 0.004 µM, partner dose 0.8 µM) is entered as 102	185	107	170	72.6	121	81.2	145	120	80	172	43.8	113	135	97.3	64.3	227	195	96.4
O=C(O)c1ccc2c(c1)nc(Nc1cccc(Cl)c1)c1ccncc12 + C=C(c1ccc(C(=O)O)cc1)c1cc2c(cc1C)C(C)(C)CCC2(C)C [Bexarotene] (first compound 0.4 µM, partner dose 2 µM) is entered as 52.8	54.9	243	57.8	80.3	29.4	199	233	179	185	163	104	108	155	89	130	66.3	109	297
